Literature values in patent publication US6471968B1, “Multifunctional nanodevice platform” (Regents of the University of Michigan, priority 2000, dated 2002).

solubility in water: poorly soluble in water
Structure (SMILES): CC(=O)O[C@H]1C(=O)[C@@]2(C)[C@H]([C@H](OC(=O)c3ccccc3)[C@]3(O)C[C@H](OC(=O)[C@H](O)[C@@H](NC(=O)c4ccccc4)c4ccccc4)C(C)=C1C3(C)C)[C@]1(OC(C)=O)CO[C@@H]1C[C@@H]2O [paclitaxel]
